Measured values reported in article PMC10454557.
These are yes or no findings as the source states them, for the method shown. Binding seen in cells or lysates may run through a third protein. Some entries that bind do so weakly or less than the wild type. For some of these results: Where a sequence is shown, tags or fusion partners need not be part of it.

The chains behind the UniProt entries cited, without tags or fusion partners. Residues count along the entry.
UniProt Q14416, residues 19-872: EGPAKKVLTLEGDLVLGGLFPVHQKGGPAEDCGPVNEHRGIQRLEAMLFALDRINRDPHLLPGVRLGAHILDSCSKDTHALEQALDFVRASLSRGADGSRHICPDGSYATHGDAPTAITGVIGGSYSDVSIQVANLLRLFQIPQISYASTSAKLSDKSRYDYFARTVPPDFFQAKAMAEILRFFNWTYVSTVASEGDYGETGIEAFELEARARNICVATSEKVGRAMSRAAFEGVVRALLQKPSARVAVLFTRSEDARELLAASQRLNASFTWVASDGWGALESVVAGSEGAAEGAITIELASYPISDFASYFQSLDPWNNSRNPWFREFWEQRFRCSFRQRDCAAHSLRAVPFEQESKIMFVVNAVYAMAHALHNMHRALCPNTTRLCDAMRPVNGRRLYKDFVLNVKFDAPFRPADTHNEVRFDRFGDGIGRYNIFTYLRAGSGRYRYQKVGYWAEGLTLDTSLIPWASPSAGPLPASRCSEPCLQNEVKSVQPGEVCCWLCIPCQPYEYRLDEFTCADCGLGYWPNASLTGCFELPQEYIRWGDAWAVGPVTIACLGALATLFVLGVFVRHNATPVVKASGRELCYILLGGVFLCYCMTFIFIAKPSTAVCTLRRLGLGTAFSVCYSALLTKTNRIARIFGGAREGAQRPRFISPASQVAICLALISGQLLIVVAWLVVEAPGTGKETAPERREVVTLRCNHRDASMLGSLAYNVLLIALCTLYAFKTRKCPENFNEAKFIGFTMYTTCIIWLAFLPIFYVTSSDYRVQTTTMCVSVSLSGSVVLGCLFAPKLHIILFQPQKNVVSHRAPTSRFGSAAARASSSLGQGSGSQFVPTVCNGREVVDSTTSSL

B1: taste receptor type 1 member 3 (TAS1R3), endogenous in human blood leukocytes (receptor, UniProt Q7RTX0 21-852)
chain: APLCLSQQLRMKGDYVLGGLFPLGEAEEAGLRSRTRPSSPVCTRFSSNGLLWALAMKMAVEEINNKSDLLPGLRLGYDLFDTCSEPVVAMKPSLMFLAKAGSRDIAAYCNYTQYQPRVLAVIGPHSSELAMVTGKFFSFFLMPQVSYGASMELLSARETFPSFFRTVPSDRVQLTAAAELLQEFGWNWVAALGSDDEYGRQGLSIFSALAAARGICIAHEGLVPLPRADDSRLGKVQDVLHQVNQSSVQVVLLFASVHAAHALFNYSISSRLSPKVWVASEAWLTSDLVMGLPGMAQMGTVLGFLQRGAQLHEFPQYVKTHLALATDPAFCSALGEREQGLEEDVVGQRCPQCDCITLQNVSAGLNHHQTFSVYAAVYSVAQALHNTLQCNASGCPAQDPVKPWQLLENMYNLTFHVGGLPLRFDSSGNVDMEYDLKLWVWQGSVPRLHDVGRFNGSLRTERLKIRWHTSDNQKPVSRCSRQCQEGQVRRVKGFHSCCYDCVDCEAGSYRQNPDDIACTFCGQDEWSPERSTRCFRRRSRFLAWGEPAVLLLLLLLSLALGLVLAALGLFVHHRDSPLVQASGGPLACFGLVCLGLVCLSVLLFPGQPSPARCLAQQPLSHLPLTGCLSTLFLQAAEIFVESELPLSWADRLSGCLRGPWAWLVVLLAMLVEVALCTWYLVAFPPEVVTDWHMLPTEALVHCRTRSWVSFGLAHATNATLAFLCFLGTFLVRSQPGCYNRARGLTFAMLAYFITWVSFVPLLANVQVVLRPAVQMGALLLCVLGILAAFHLPRCYLLMRQPGLNTPEFFLGGGPGDAQGQNDGNTGNQGKHE
B2: recombinant human TAS1R3 with N-terminal IL-6-HaloTag or IL-6-NanoLuc (receptor, UniProt Q7RTX0 21-852)
chain: B1 chain

Legend:
[1] = target: metabotropic glutamate receptor 2 (mGlu2), endogenous in human blood leukocytes (human (endogenous in blood PMNs and T cells)) (UniProt Q14416); assay: co-IP; lysates (RIPA) of isolated human blood PMNs; anti-mGlu2 or anti-TAS1R3 antibody covalently cross-linked to Dynabeads; lysate cleared at 12,000 x g or 15,000 x g; Western blot for the other receptor
[2] = target: recombinant human mGlu2 with N-terminal IL-6-HaloTag or IL-6-NanoLuc (human) (UniProt Q14416); assay: FRET or BRET; NanoBRET saturation in HEK-293 cells: acceptor IL-6-HaloTag-TAS1R3 titrated, donor IL-6-NanoLuc-mGlu2 kept constant
[3] = target: T1, recombinant human TAS1R3 with N-terminal IL-6-HaloTag or IL-6-NanoLuc (human) (UniProt Q7RTX0); assay: FRET or BRET; NanoBRET in living HEK-293 cells, transiently transfected with 50 ng/well of each plasmid; IL-6-HaloTag fusion with NanoBRET 618 ligand as acceptor, IL-6-NanoLuc fusion as donor; normalised to the p53/MDM2 positive control; 50 uM MSG did not alter the signals
T1 sequence: B1 chain

[4] = target: recombinant human mGlu2 with N-terminal IL-6-HaloTag or IL-6-NanoLuc (human) (UniProt Q14416); assay: as above

Row | Binder | binding [1] | binding [2] | binding [3] | binding [4]
1 | B1 | binds |  |  | 
2 | B2 |  | binds | binds | binds
